{"source": "patent US4639511A", "about": "“Des-19-leucine-calcitonin analogs” (Armour Pharmaceutical Company, priority 1985, dated 1987)", "tested_on": "serum calcium concentration", "assay": "Biological assay of calcitonin analogs in vivo: reduction of serum calcium concentration, 2x2 parallel line assay", "conditions": "rats, subcutaneous injection, blood withdrawn 1 hour later, vs synthetic salmon calcitonin standard", "note": "At least one peptide structure holds a part that was inferred or is arguable (an end, a ring closure or a residue). Positions of bridges follow the written chain, without caps; N, C: chain ends. Residues, ends and D or L forms follow the SMILES beside them.", "data": [{"molecule": "CC(C)C[C@H](NC(=O)[C@H](CCCCN)NC(=O)CNC(=O)[C@H](CC(C)C)NC(=O)[C@@H](NC(=O)[C@@H]1CSSC[C@H](N)C(=O)N[C@@H](CO)C(=O)N[C@@H](CC(N)=O)C(=O)N[C@@H](CC(C)C)C(=O)N[C@@H](CO)C(=O)N[C@@H]([C@@H](C)O)C(=O)N1)C(C)C)C(=O)N[C@@H](CO)C(=O)N[C@@H](CCC(N)=O)C(=O)N[C@@H](CCC(=O)O)C(=O)N[C@@H](CC(C)C)C(=O)N[C@@H](Cc1c[nH]cn1)C(=O)N[C@@H](CCCCN)C(=O)N[C@@H](CCC(N)=O)C(=O)N[C@H](C(=O)N[C@@H](Cc1ccc(O)cc1)C(=O)N1CCC[C@H]1C(=O)N[C@@H](CCCNC(=N)N)C(=O)N[C@H](C(=O)N[C@@H](CC(N)=O)C(=O)N[C@H](C(=O)NCC(=O)N[C@@H](CO)C(=O)NCC(=O)N[C@H](C(=O)N1CCC[C@H]1C(N)=O)[C@@H](C)O)[C@@H](C)O)[C@@H](C)O)[C@@H](C)O", "note": "[des-Leu^19 -SCT, des-19-leucine-salmon calcitonin] (H-CSNLSTCVLGKLSQELHKQTYPRTNTGSGTP-NH2; disulfide 1-7)", "values": [{"measurement": "biological potency (reduction of serum calcium concentration)", "value": 7900, "unit": "IU/mg"}]}]}
